# These are yes or no findings as the source states them, for the method shown. Binding seen in cells or lysates may run through a third protein. Binding calls can cover weak binding; strength is not graded here.
# Target: T1, Programmed cell death 4 (PDCD4) (human (endogenous in 293T)) (UniProt Q53EL6)
# T1 sequence: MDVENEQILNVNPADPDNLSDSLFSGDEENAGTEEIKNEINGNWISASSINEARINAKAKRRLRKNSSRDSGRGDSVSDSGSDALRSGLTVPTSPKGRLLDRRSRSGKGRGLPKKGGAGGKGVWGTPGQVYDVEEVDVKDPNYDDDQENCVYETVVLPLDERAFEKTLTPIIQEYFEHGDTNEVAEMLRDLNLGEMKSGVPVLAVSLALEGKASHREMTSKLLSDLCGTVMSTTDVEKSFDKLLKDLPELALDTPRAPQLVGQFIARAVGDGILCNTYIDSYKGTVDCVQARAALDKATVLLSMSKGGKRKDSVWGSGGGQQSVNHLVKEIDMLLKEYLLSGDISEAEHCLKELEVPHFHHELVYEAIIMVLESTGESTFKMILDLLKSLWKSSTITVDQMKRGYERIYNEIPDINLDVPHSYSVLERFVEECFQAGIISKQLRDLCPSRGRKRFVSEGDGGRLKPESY
# Test: co-IP; Flag-tagged truncated DTL fragments transfected into 293T (Lipofectamine 2000); precipitated by PDCD4 antibody, blotted with Flag antibody
substance,measurement,value
"Flag-DTL truncated fragment, WD40 domain only (human) (domain or fragment)",binding,binds
